In the test the target is β-catenin-binding domain of E-cadherin cytosolic tail targeted to mitochondria (mouse). Briefly: mitochondrial co-recruitment assay (live-cell confocal imaging); E-cadherin tail constructs fused to RFP-tagged MLS of ActA held at mitochondria of U2OS cells; recruitment of co-expressed YFP-LGN-TPR or GFP-p120-catenin scored as fluorescence at mitochondria.

This is an account of results in article PMC5216124, “Cell division orientation is coupled to cell–cell adhesion by the E-cadherin/LGN complex” (Nature Communications, 2017).

Results are given in words; binding and its absence hold for the method and conditions named. Sequences can lack the tags named with a protein.

B1: YFP-tagged TPR repeats of human LGN (domain or fragment, UniProt P81274 8-351)
chain: MREDHSFHVRYRMEASCLELALEGERLCKSGDCRAGVSFFEAAVQVGTEDLKTLSAIYSQLGNAYFYLHDYAKALEYHHHDLTLARTIGDQLGEAKASGNLGNTLKVLGNFDEAIVCCQRHLDISRELNDKVGEARALYNLGNVYHAKGKSFGCPGPQDVGEFPEEVRDALQAAVDFYEENLSLVTALGDRAAQGRAFGNLGNTHYLLGNFRDAVIAHEQRLLIAKEFGDKAAERRAYSNLGNAYIFLGEFETASEYYKKTLLLARQLKDRAVEAQSCYSLGNTYTLLQDYEKAIDYHLKHLAIAQELNDRIGEGRACWSLGNAYTALGNHDQAMHFAEKHLEI
Turning to B1, the binding entry is “no binding”.
